For at least one entry, the source does not settle the construct or the ends of the probe. For part of these data: At least one verdict rests on a figure or table, not on a statement of the authors.
Tests used:
[1] = molecular target: human TGF-β1 (active) (Homo sapiens) (UniProt P01137); test: SPR; conditions: 2'-OMe at 1,4,8-12,16,17,23-27,30-33, 2'-F at 3,5,19,20,21, others 2'-OH, 5' 40-kDa PEG, 3' inverted dT, SPR (Biacore): 145 mM NaCl, 5.4 mM KCl, 0.8 mM MgCl2, 1.8 mM CaCl2, 20 mM Tris-HCl pH 7.6, 0.05% Tween 20, temperature not given, recombinant protein, label: 5' biotin when immobilized on SA chip
[2] = molecular target: human TGF-β1 (active) (Homo sapiens) (UniProt P01137); test: competition with a labelled probe; conditions: SPR: 8 nM aptamer (4 nM in Fig 1C) inhibits 4 nM TGF-β1 binding to TGF-βRII/Fc; 2'-fluoro pyrimidines (SELEX with 2'-F-CTP and 2'-F-UTP); parent of APT-β1-OMe without 2'-OMe; recombinant protein; letters put together from the description

By UniProt entry, the sequences of proteins in these tests, tags left out. Residues count along the entry.
UniProt P01137, 279-390: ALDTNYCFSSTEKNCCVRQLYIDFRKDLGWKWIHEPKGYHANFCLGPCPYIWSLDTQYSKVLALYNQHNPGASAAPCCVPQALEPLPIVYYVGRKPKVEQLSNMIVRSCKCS

| Sequence | Kd ([1]; TGF-β1 immobilized on CM4 (624 RU), univalent model, distorted sensorgrams, accuracy uncertain) | Kd ([1]; aptamer immobilized on SA chip (67.1 RU), bivalent model KD1, accuracy uncertain per authors) | binding result [2] |
| --- | --- | --- | --- |
| GGCAUAAGGGAGGGGAGACUUGUGGAGGGCAAG [APT-β1-OMe-P] | 1.77 nM | 1.13 nM |  |
| GGCAUAAGGGAGGGGAGACUUGUGGAGGGCAAG [APT-β1] |  |  | binds |

— publication PMC9481871
